US20230416798A1 (MBRACE THERAPEUTICS, published 2023)
No constants are given. Whether binding was seen depends on the method and setting. In cells and extracts the contact can be indirect. Some entries that bind do so weakly or less than the wild type. One block for each binder: values may come before it.

By UniProt entry, the sequences of proteins in these tests, tags left out. Residues count along the entry.
UniProt G3I8R9, residues 19-654: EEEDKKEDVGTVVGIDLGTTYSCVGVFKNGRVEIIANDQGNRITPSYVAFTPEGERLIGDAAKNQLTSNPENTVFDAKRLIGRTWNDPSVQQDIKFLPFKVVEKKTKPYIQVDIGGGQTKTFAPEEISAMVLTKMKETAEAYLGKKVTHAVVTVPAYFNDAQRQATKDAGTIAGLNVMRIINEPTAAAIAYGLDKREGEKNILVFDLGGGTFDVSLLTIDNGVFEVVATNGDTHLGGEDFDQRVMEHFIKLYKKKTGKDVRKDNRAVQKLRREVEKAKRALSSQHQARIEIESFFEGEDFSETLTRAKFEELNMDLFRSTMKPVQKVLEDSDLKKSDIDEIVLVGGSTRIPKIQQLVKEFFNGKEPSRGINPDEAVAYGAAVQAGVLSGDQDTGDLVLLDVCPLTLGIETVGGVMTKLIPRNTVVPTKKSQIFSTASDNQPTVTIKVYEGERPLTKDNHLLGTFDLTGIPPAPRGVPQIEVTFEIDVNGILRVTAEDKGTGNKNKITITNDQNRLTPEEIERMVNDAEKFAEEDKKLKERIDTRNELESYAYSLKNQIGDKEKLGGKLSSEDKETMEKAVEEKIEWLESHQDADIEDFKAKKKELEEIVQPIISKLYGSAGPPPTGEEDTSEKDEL

Molecular target: native GRP78 of CHO cells (Chinese hamster (native protein of the CHO cells)) (UniProt G3I8R9)
Test: co-purification with the antibody from CHO supernatant (MabSelect PrismA column), SDS-PAGE

binding: binds
B1: anti-GRP78 antibody clone B4 (antibody, IgG1, V domains shown)
VH: QVRLQESGPGLVKPSQTLSLTCTVSGGSISSGGYYWSWIRQHPGKGLEWIGYIYYSGSTYYNPSLESRVTISVDTSKNQFSLKLSSVTAADTAVYYCARYSSIDAFEIWGQGTMVTVSS
VL: SYVLTQPPSVSVAPGKTATITCGGDDIGSKSVHWYQQKPGQAPVLVVYDDGDRPSGIPERFSGSNSGNTATLAISRVEAGDEADYYCQVWDSSSDQYVFGSGTKLTVL
notes: Fully human mAb formatted as full-length IgG1; also called B4 mAb

binding: binds
B2: anti-GRP78 antibody clone F6 (antibody, IgG1, V domains shown)
VH: QVQLQQSGPGLVKPPQTLSLTCAISGDSVSSNSAAWNWIRQSPSRGLEWLGRTYYRSKWYNDYAVSVKSRITINPDTSKNQFSLQLNSVTPEDTAVYYCARDPYYYDSSGYYYFDAFDIWGQGTMVTVSS
VL: SYELTQPHSVSVAPGQTARITCGGDNIGSKSVHWYQQRPGQAPVLVVYDDSDRPSGIPERFSGSNSENTATLTISGVEAGDEADYYCQVWDSTSHHVVFGGGTKLTVL
notes: Fully human mAb formatted as full-length IgG1; also called F6 mAb; Anti-GRP78 (F6)
